# Reference: PubChem BioAssay (NCATS)
# The inconclusive results got no clear call from the source; some entries with a clear call stand among them for comparison. Potencies of inconclusive entries are doubtful fits and often do not repeat. Active and inactive are the calls of the source. Unless noted, calls come from the whole dose curve; as a rule, active = well fitted curve in the direction sought with a large enough effect; inconclusive = small, poorly fitted or top-dose-only effect, or another doubt; inactive = no such curve, though single readings can be large; an effect the other way counts as inactive or inconclusive.
# What was measured:
# [1] = Quantitative High-Throughput drug screen in 47 multiple myeloma cell lines against the NCATS MIPE library collection: UTMC2_PLB cell viability assay (AID 1919868); conditions: CellTiter-Glo ATP luminescence, 48 h; series mostly up to 45.8 µM; note: nearly all actives have a fitted effect of over 55% in size
# Outline: (§1)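 Plated at 500 cells per well, myeloma lines received MIPE 4.0 compounds by pin tool. Following 48 h culture at 37 °C, CellTiter-Glo luminescence gave viability relative to DMSO and media-only controls.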
# [2] = Quantitative High-Throughput drug screen in 47 multiple myeloma cell lines against the NCATS MIPE library collection: PE2_PLB cell viability assay (AID 1919869); note: nearly all actives have a fitted effect of over 35% in size
# Outline: as §1
# [3] = Quantitative High-Throughput drug screen in 47 multiple myeloma cell lines against the NCATS MIPE library collection: PCM6_Riken cell viability assay (AID 1919870); conditions: CellTiter-Glo ATP, 48 h; series mostly up to 45.8 µM; note: nearly all actives have a fitted effect of over 30% in size
# Outline: as §1
# [4] = Quantitative High-Throughput drug screen in 47 multiple myeloma cell lines against the NCATS MIPE library collection: OPM2_DSMZ cell viability assay (AID 1919872); note: nearly all actives have a fitted effect of over 30% in size
# Outline: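 Primary qHTS used for cherry-picking: cells at 500/well, library compounds for 48 h (37C, 5% CO2), luminescent ATP assay.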
# [5] = Quantitative High-Throughput drug screen in 47 multiple myeloma cell lines against the NCATS MIPE library collection: KMS28BM_JCRB cell viability assay (AID 1919874); note: nearly all actives have a fitted effect of over 35% in size
# Outline: as §1
# [6] = qHTS for identification of novel therapeutic agents for treatment of microphthalmiaassociated transcription factor (MiT) renal cell carcinoma (RCC) (AID 1963991; calls by dose curve); conditions: TFE3-RCC UOK109 viability, CellTiter-Glo, 48 h; active = Z-AUC below -0.8 in all three lines
# Outline: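 Three TFE3-fusion RCC lines (UOK109, UOK124, UOK145), 500 cells/well in complete medium, were treated with MIPE 4.0 compounds for 48 hours at 37 C. Viability was by CellTiter-Glo luminescence, normalized to DMSO (100%) and empty wells (0%); curves fitted over 11 concentrations.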
# [7] = Quantitative High-Throughput drug screen in 47 multiple myeloma cell lines against the NCATS MIPE library collection: KMS11_JCRBsus cell viability assay (AID 1919873); note: nearly all actives have a fitted effect of over 50% in size
# Outline: as §1
# NIH3T3 = experiment: Cytotoxic Profiling of Annotated Libraries Using Quantitative High-Throughput Screening (AID 1296008); conditions: Five cell lines viability, CellTiter-Glo ATP luminescence, 48-72 h; max response: stronger effect = lower value; note: nearly all actives have a fitted effect of over 60% in size
# Outline: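 Cytotoxicity was measured as CellTiter-Glo ATP luminescence, read after 10 min at room temperature. Compound treatment of the cells lasted 48 or 72 hr at 37 degrees Celsius in a qHTS format.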
# [8] = Quantitative High-Throughput drug screen in 47 multiple myeloma cell lines against the NCATS MIPE library collection: RPMI8226_ATCC cell viability assay (AID 1919871); note: nearly all actives have a fitted effect of over 30% in size
# Outline: as §1
# Potency is the fitted concentration of half-maximal effect.
SMILES,Potency [1],Potency [2],Potency [3],Potency [4],Potency [5],Potency [6],Potency [7],Potency (NIH3T3),Potency [8]
Cc1c[nH]c(C=C2C(=O)Nc3ccccc32)c1CCC(=O)O,"inconclusive: 16.6 µM [cytotoxic, partial curve, poor fit]","inconclusive: 29.6 µM [cytotoxic, single point]",active: 20.9 µM,"inconclusive: 16.6 µM [cytotoxic, partial curve]","inconclusive: 29.6 µM [cytotoxic, single point]",inconclusive: 0.00372 µM,–,–,–
CC=C(C)C(=O)O[C@H]1C(C)=C[C@]23C(=O)[C@@H](C=C(CO)[C@@H](O)[C@]12O)[C@H]1[C@@H](C[C@H]3C)C1(C)C,"inconclusive: 20.9 µM [cytotoxic, partial curve, poor fit]","inconclusive: 26.4 µM [cytotoxic, partial curve, poor fit]","inconclusive: 33.2 µM [cytotoxic, partial curve, poor fit]","inconclusive: 20.9 µM [cytotoxic, partial curve]","inconclusive: 29.6 µM [cytotoxic, single point]",–,"inconclusive: 23.5 µM [cytotoxic, partial curve]",–,–
O=C(O)CCC1CCC(c2cc(F)ccc2F)(S(=O)(=O)c2ccc(Cl)cc2)CC1 (configuration not stated),"inconclusive: 8.33 µM [cytotoxic, partial curve, poor fit]",–,–,–,"inconclusive: 0.105 µM [cytotoxic, full curve]","inconclusive: 9.35 µM [falling, partial curve]",–,"inconclusive: 37.2 µM [inhibitor, single point]",–
O=C1N(c2ccccc2)c2ccccc2C1(Cc1ccncc1)Cc1ccncc1,"inconclusive: 37.2 µM [cytotoxic, single point]",active: 20.9 µM,"inconclusive: 33.2 µM [cytotoxic, single point]",–,"inconclusive: 33.2 µM [rising, single point]","inconclusive: 37.2 µM [falling, partial curve, poor fit]",inactive,–,–
O=C(Nc1c(Cl)cncc1Cl)c1ccc(OC(F)F)c(OCC2CC2)c1,"inconclusive: 0.0019 µM [rising, full curve, poor fit]","inconclusive: 33.2 µM [cytotoxic, single point]","inconclusive: 29.6 µM [cytotoxic, single point]",inactive,inactive,–,–,–,–
CC(COc1ccccc1)N(CCCl)Cc1ccccc1 (configuration not stated),"inconclusive: 2.96 µM [rising, partial curve, poor fit]","inconclusive: 41.8 µM [cytotoxic, single point]","inconclusive: 33.2 µM [cytotoxic, partial curve, poor fit]",–,active: 18.7 µM,"inconclusive: 37.2 µM [falling, single point]",–,–,–
Cc1cc(O)c2c(c1)C(=O)c1cccc(O)c1C2=O,"inconclusive: 0.469 µM [rising, partial curve, poor fit]",inactive,inactive,–,inactive,–,–,–,–
O=C(C1CCCCC1)N1CC(=O)N2CCc3ccccc3C2C1 (configuration not stated),"inconclusive: 37.2 µM [rising, partial curve, poor fit]","inconclusive: 0.0166 µM [rising, full curve, poor fit]","inconclusive: 0.0023 µM [rising, full curve, poor fit]",–,inactive,–,inactive,–,"inconclusive: 0.0372 µM [rising, full curve, poor fit]"
CC(=O)O[C@]1(C(C)=O)CC[C@@H]2[C@@H]3C[C@H](C)C4=CC(=O)CC[C@]4(C)[C@H]3CC[C@@]21C,inactive,"inconclusive: 23.5 µM [cytotoxic, partial curve]","inconclusive: 26.4 µM [cytotoxic, single point]",–,"inconclusive: 23.5 µM [cytotoxic, partial curve, poor fit]",inconclusive: 20.9 µM,–,–,–
COc1cccc([C@@H](C)NCCCc2ccccc2Cl)c1,"inconclusive: 6.62 µM [rising, full curve]","inconclusive: 37.2 µM [cytotoxic, single point]","inconclusive: 29.6 µM [cytotoxic, single point]",–,–,"inconclusive: 37.2 µM [falling, single point]","inconclusive: 41.8 µM [rising, partial curve, poor fit]",–,inactive
Cc1cccc(C)c1OCC(=O)N[C@@H](Cc1ccccc1)[C@@H](O)C[C@H](Cc1ccccc1)NC(=O)[C@H](C(C)C)N1CCCNC1=O,"inconclusive: 33.2 µM [cytotoxic, single point]","inconclusive: 33.2 µM [cytotoxic, single point]","inconclusive: 33.2 µM [cytotoxic, single point]",–,"inconclusive: 29.6 µM [cytotoxic, single point]","inconclusive: 18.7 µM [falling, partial curve]",–,–,"inconclusive: 20.9 µM [cytotoxic, partial curve]"
O=c1ccn([C@@H]2O[C@H](CO)[C@H](O)[C@H]2O)c(=O)[nH]1,"inconclusive: 5.26 µM [cytotoxic, partial curve, poor fit]",inactive,–,–,–,–,"inconclusive: 18.7 µM [cytotoxic, partial curve]",–,"inconclusive: 13.2 µM [cytotoxic, partial curve, poor fit]"
O=C(O)c1cc(=O)[nH]c(=O)[nH]1,"inconclusive: 9.35 µM [cytotoxic, single point]",inactive,–,–,"inconclusive: 0.0083 µM [cytotoxic, full curve, poor fit]",–,inactive,"inconclusive: 33.5 µM [inhibitor, single point]",–
CC[C@H]1OC(=O)[C@H](C)[C@@H](O[C@H]2C[C@@](C)(OC)[C@@H](O)[C@H](C)O2)[C@H](C)[C@@H](O[C@@H]2O[C@H](C)C[C@H](N(C)C)[C@H]2O)[C@](C)(O)C[C@H](C)C(=NOCOCCOC)[C@H](C)[C@@H](O)[C@]1(C)O,inactive,inactive,inactive,–,"inconclusive: 0.0012 µM [cytotoxic, full curve, poor fit]",–,–,–,active: 4.69 µM
C[C@]12CC[C@@H]3c4ccc(O)cc4CC[C@H]3[C@H]1C[C@@H](O)[C@H]2O,inactive,"inconclusive: 2.64 µM [cytotoxic, partial curve, poor fit]","inconclusive: 0.0033 µM [rising, full curve, poor fit]",inactive,–,–,"inconclusive: 33.2 µM [cytotoxic, single point]",–,"inconclusive: 20.9 µM [cytotoxic, partial curve, poor fit]"
COCCCCC(=NOCCN)c1ccc(C(F)(F)F)cc1,"inconclusive: 20.9 µM [cytotoxic, partial curve, poor fit]",–,"inconclusive: 14.8 µM [cytotoxic, partial curve, poor fit]",–,"inconclusive: 6.62 µM [cytotoxic, partial curve, poor fit]","inconclusive: 14.8 µM [falling, partial curve]",–,–,"inconclusive: 20.9 µM [cytotoxic, partial curve]"
C[C@H](NC(=O)Cc1cc(F)cc(F)c1)C(=O)N[C@H](C(=O)OC(C)(C)C)c1ccccc1,"inconclusive: 2.64 µM [cytotoxic, full curve, poor fit]",–,inactive,–,inactive,inconclusive: 0.743 µM,"inconclusive: 16.6 µM [cytotoxic, partial curve, poor fit]",–,"inconclusive: 9.35 µM [cytotoxic, partial curve, poor fit]"
Cc1cc(=O)oc2cc(O)ccc12,inconclusive: 0.001 µM [cytotoxic],–,"inconclusive: 5.9 µM [cytotoxic, partial curve, poor fit]",–,–,"inconclusive: 29.6 µM [falling, single point]",–,–,–
NC(=O)c1ccc(I)c([N+](=O)[O-])c1,"inconclusive: 37.2 µM [cytotoxic, single point]",–,"inconclusive: 26.4 µM [cytotoxic, single point]",–,inactive,–,–,–,"inconclusive: 0.0074 µM [rising, full curve, poor fit]"
O=C(Nc1cc(Cl)cc2c1[nH]c1cnccc12)c1cccnc1,"inconclusive: 2.09 µM [cytotoxic, full curve, poor fit]",–,"inconclusive: 8.33 µM [cytotoxic, full curve]",–,"inconclusive: 3.72 µM [cytotoxic, full curve, poor fit]","inconclusive: 3.32 µM [falling, full curve]",–,–,"inconclusive: 0.469 µM [cytotoxic, partial curve, poor fit]"
Nc1nc(-c2nn(Cc3ccccc3F)c3ncccc23)nc(N)c1N1CCOCC1,inconclusive: 0.001 µM [cytotoxic],"inconclusive: 23.5 µM [cytotoxic, partial curve]",–,–,inactive,"inconclusive: 37.2 µM [falling, partial curve, poor fit]","inconclusive: 37.2 µM [cytotoxic, single point]",–,"inconclusive: 0.0017 µM [rising, full curve, poor fit]"
O=C(O)c1nc(=O)[nH]c(=O)[nH]1,"inconclusive: 0.0724 µM [rising, full curve, poor fit]",–,inactive,inactive,"inconclusive: 14.4 µM [cytotoxic, single point]",–,–,–,–

# Entries of single compounds as entered above. Order of values: Potency [1]	Potency [2]	Potency [3]	Potency [4]	Potency [5]	Potency [6]	Potency [7]	Potency (NIH3T3)	Potency [8]
# O=c1ccn([C@@H]2O[C@H](CO)[C@H](O)[C@H]2O)c(=O)[nH]1 in the list: inconclusive: 5.26 µM [cytotoxic, partial curve, poor fit]	inactive	–	–	–	–	inconclusive: 18.7 µM [cytotoxic, partial curve]	–	inconclusive: 13.2 µM [cytotoxic, partial curve, poor fit]
# O=C(O)c1cc(=O)[nH]c(=O)[nH]1 in the list: inconclusive: 9.35 µM [cytotoxic, single point]	inactive	–	–	inconclusive: 0.0083 µM [cytotoxic, full curve, poor fit]	–	inactive	inconclusive: 33.5 µM [inhibitor, single point]	–
